The results in this text go back to article PMC6783494.

Protein sequences, listed by entry. Tags and fused reporters are not part of them. Lines headed by an entry give the natural chain unless they say otherwise; changes in a name come on top.
UniProt P35637: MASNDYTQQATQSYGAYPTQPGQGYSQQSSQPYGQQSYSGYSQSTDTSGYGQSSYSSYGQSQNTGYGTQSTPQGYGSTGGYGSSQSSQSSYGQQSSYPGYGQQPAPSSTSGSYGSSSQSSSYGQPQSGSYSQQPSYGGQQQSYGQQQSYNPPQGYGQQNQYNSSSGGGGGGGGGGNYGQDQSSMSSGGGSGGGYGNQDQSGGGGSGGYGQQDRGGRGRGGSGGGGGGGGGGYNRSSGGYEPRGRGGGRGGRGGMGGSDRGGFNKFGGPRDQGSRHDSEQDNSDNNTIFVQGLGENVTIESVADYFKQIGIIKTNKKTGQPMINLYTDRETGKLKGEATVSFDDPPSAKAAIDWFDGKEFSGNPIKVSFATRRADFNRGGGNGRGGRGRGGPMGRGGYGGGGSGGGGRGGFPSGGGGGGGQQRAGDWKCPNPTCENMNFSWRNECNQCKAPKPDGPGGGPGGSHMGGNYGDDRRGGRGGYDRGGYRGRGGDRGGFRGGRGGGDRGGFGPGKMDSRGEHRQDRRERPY
UniProt Q00987: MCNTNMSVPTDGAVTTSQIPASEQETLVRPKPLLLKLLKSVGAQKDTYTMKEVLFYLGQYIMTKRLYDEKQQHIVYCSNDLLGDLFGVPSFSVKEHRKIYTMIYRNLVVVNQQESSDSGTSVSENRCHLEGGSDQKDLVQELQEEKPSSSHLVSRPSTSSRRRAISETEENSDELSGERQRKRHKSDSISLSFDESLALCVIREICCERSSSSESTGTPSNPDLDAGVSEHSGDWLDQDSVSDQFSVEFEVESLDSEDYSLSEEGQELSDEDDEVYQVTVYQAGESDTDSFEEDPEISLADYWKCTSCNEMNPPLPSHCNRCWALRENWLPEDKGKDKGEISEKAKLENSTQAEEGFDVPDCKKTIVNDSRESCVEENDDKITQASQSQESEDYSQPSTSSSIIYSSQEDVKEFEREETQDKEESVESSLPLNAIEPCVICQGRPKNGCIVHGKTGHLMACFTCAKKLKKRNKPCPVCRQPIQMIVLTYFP

No constants are given. Whether binding was seen depends on the method and setting. Binding seen in cells or lysates may run through a third protein. Some entries that bind do so weakly or less than the wild type.

One assay deals with V5-FUS, full length (UniProt P35637). Kind of assay: co-IP; V5-FUS full length or truncated versions transfected in HEK293T cells; IP with anti-V5 tag antibody, western blot with a specific MDM2 antibody. On the technique in general: Immunoblotting shows a protein as a band on a membrane.
Assay [1] deals with FUS (fused in sarcoma), endogenous in glioblastoma cells (human (endogenous in T98G-R and U118-R)) (UniProt P35637). Kind of assay: co-IP; endogenous proteins in lysates of T98G-R and U118-R cells; 500 ug lysate, specific primary antibody, protein A/G beads, 4 C; also after knock-down of ADAMTS9-AS2 or MDM2; which of the two was precipitated is not told.

As for “MDM2 in HEK293T cells (from UniProt Q00987 1-491)”, the binding result with V5-FUS, full length is “binds”.

Turning to “murine double minute 2 (MDM2) E3 ligase, endogenous in glioblastoma cells (from UniProt Q00987 1-491)”, in assay [1], the binding result is on record as “binds”.
